Values quoted from earlier work as cited in patent US7098204B2 (C.N.R.S., priority 1999, dated 2006).

Test system: 60 human tumor cell lines
Conditions: read-out: average IC50 over 60 human tumor cell lines (literature); cited from earlier work

For `CC[C@H](CO)Nc1nc(NCc2ccccc2)c2ncn(C(C)C)c2n1` [roscovitine], the IC50 is given as 16 µM.
